Source: patent US20030032636A1, “Combination of a serotonin reuptake inhibitor and a 5-HT2C antagonist, inverse agonist or partial agonist” (H. Lundbeck A/S, priority 1999, published 2003)
At least one compound was matched to its structure with a doubt left.

Test system: prefrontal cortex 5-HT levels
Experiment: Microdialysis, prefrontal cortex 5-HT levels
Format: in vivo, rat
Details: alone, 10 μmol/kg subcutaneous

CN(C)CCCC1(c2ccc(F)cc2)OCc2cc(C#N)ccc21 (stereo not shown) [citalopram]
prefrontal cortex 5-HT levels compared to saline injection: significantly increased
